Data as given in PubChem BioAssay AID504793 (Drosophila RNAi Screening Center, 2011)

Aim: 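Knock-downs allowing continued mitosis even though DNA is damaged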 (primary screen)
Cell system: Drosophila S2R+ cells
Reagents: long dsRNA against Drosophila genes, about 0.25 µg dsRNA per well
Time to read-out: 4 days of dsRNA, then 4 hours of drug before read-out
Conditions: doxorubicin 0.5 µM for 4 hours to cause double-strand breaks, in cells also given a low, harmless dose of dsRNA against nbs to sensitise the assay
Read-out: 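Per-well count of mitotic cells stained for phospho-histone H3 after doxorubicin exposure, used as mitotic index; counts are raw and not normalised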
Scale: mitotic cells: higher = more cells in mitosis, weaker G2 arrest
Hit rule: 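Genes are called active only when high mitotic counts were reproduced with independent dsRNAs and mitosis was checked for delay without damage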
Calls: active = confirmed in follow-up tests; inactive = not confirmed
In all, the deposit lists about 23,000 reagents; shown is a random part of those that have a named target and a result. In the full data, 62 (0.27%) are marked active. 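Calls come from follow-up tests whose scores are not deposited, so confirmed genes may have low counts here; counts are not normalised per plate.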 Raw values vary from plate to plate and are shown uncorrected. Names joined by + are all predicted targets of the reagent.

Depletion of CG42809 + CG42810 [DRSC02532] came out at: mitotic cells, replicate 1 = 8; inactive.
CG42809 + CG42810 [DRSC02533] gave mitotic cells, replicate 1 = 6; inactive.
Silencing of Mettl5 + CG42374 [DRSC26961] gave: mitotic cells, replicate 1 = 7; inactive.
With knock-down of CG43316 [DRSC06296], the record shows mitotic cells, replicate 1 = 5; inactive.
Knock-down of CG43316 [DRSC06297] resulted in: mitotic cells, replicate 1 = 4; inactive.
For CG43316 [DRSC28460], the values are mitotic cells, replicate 1 = 1; inactive.
For Cdc45 [DRSC17747], the values are mitotic cells, replicate 1 = 19; active.
Cdc45 [DRSC18164] scored mitotic cells, replicate 1 = 7; inactive.
CG13155 [DRSC06280] scored mitotic cells, replicate 1 = 5; inactive.
For CG6180 [DRSC02937], the entry reads mitotic cells, replicate 1 = 2; inactive.
Silencing of CG6180 [DRSC25726] resulted in: mitotic cells, replicate 1 = 6; inactive.
Lsd-2 [DRSC20143] gave mitotic cells, replicate 1 = 12; inactive.
Depletion of Lsd-2 [DRSC28901] gave: mitotic cells, replicate 1 = 5; inactive.
CG33771 [DRSC11718] showed mitotic cells, replicate 1 = 11; inactive.
Against RpS11 [DRSC07289] the deposit lists mitotic cells, replicate 1 = 12; inactive.
Knock-down of RpS11 [DRSC22700] gave: mitotic cells, replicate 1 = 2; inactive.
For daed + CG34174 [DRSC27640], the entry reads mitotic cells, replicate 1 = 7; inactive.
Against Obp19d [DRSC20569], the values are mitotic cells, replicate 1 = 8; inactive.
After knock-down of Vm32E [DRSC03474], the record shows mitotic cells, replicate 1 = 8; inactive.
Vm32E [DRSC25156] scored mitotic cells, replicate 1 = 7; inactive.
CG9747 [DRSC16554] gave mitotic cells, replicate 1 = 8; inactive.
CG9747 [DRSC23910] gave mitotic cells, replicate 1 = 6; inactive.
CG18081 [DRSC10294] showed mitotic cells, replicate 1 = 4; inactive.
Silencing of CG18081 [DRSC25758] resulted in: mitotic cells, replicate 1 = 9; inactive.
